From a melanoma drug combination screen (doi:10.1371/journal.pone.0140310); values rounded.

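Human melanoma cells were exposed to a pair of drugs for 72 h in 1,536-well plates and read by automated microscopy after fixing and staining. Values are the number of DAPI-stained nuclei as a percentage of the DMSO control: 100 is no effect, lower means fewer cells. Concentrations were fixed for each drug; these are the lower of two levels, a fifth of the higher. These are primary screening values without error estimates.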
This is part of the screen, not chosen by result.
A dash means that no value is listed here.

Every entry is a combination with palbociclib at 0.04 µM: CC(=O)c1c(C)c2cnc(Nc3ccc(N4CCNCC4)cn3)nc2n(C2CCCC2)c1=O

Compounds and concentrations:
tozasertib (0.006 µM): Cc1cc(Nc2cc(N3CCN(C)CC3)nc(Sc3ccc(NC(=O)C4CC4)cc3)n2)n[nH]1
GW2580 (1 µM): COc1ccc(COc2ccc(Cc3cnc(N)nc3N)cc2OC)cc1
CHIR-265 (0.08 µM): Cn1c(Nc2ccc(C(F)(F)F)cc2)nc2cc(Oc3ccnc(-c4ncc(C(F)(F)F)[nH]4)c3)ccc21
CX-4945 (0.4 µM): O=C(O)c1ccc2c(c1)nc(Nc1cccc(Cl)c1)c1ccncc12
ABT-263 (0.4 µM): CC1(C)CCC(c2ccc(Cl)cc2)=C(CN2CCN(c3ccc(C(=O)NS(=O)(=O)c4ccc(N[C@H](CCN5CCOCC5)CSc5ccccc5)c(S(=O)(=O)C(F)(F)F)c4)cc3)CC2)C1
tamatinib (0.4 µM): COc1cc(Nc2ncc(F)c(Nc3ccc4c(n3)NC(=O)C(C)(C)O4)n2)cc(OC)c1OC
crizotinib (0.2 µM): C[C@@H](Oc1cc(-c2cnn(C3CCNCC3)c2)cnc1N)c1c(Cl)ccc(F)c1Cl
IMD-0354 (0.016 µM): O=C(Nc1cc(C(F)(F)F)cc(C(F)(F)F)c1)c1cc(Cl)ccc1O
ruxolitinib (1 µM): N#CC[C@H](C1CCCC1)n1cc(-c2ncnc3[nH]ccc23)cn1
GW9662 (2 µM): O=C(Nc1ccccc1)c1cc([N+](=O)[O-])ccc1Cl
pioglitazone (2 µM): CCc1ccc(CCOc2ccc(CC3SC(=O)NC3=O)cc2)nc1 (stereo not drawn)
bexarotene (2 µM): C=C(c1ccc(C(=O)O)cc1)c1cc2c(cc1C)C(C)(C)CCC2(C)C
SNS-032 (0.01 µM): CC(C)(C)c1cnc(CSc2cnc(NC(=O)C3CCNCC3)s2)o1
FK866 (0.01 µM): O=C(/C=C/c1cccnc1)NCCCCC1CCN(C(=O)c2ccccc2)CC1
BI-78D3 (0.2 µM): O=c1[nH]nc(Sc2ncc([N+](=O)[O-])s2)n1-c1ccc2c(c1)OCCO2
U73122 (0.4 µM): COc1ccc2c(c1)CCC1C2CCC2(C)C(NCCCCCCN3C(=O)C=CC3=O)CCC12 (stereo not drawn)
midostaurin (0.08 µM): CO[C@@H]1[C@H](N(C)C(=O)c2ccccc2)C[C@H]2O[C@]1(C)n1c3ccccc3c3c4c(c5c6ccccc6n2c5c31)C(=O)NC4
PD173074 (0.1 µM): CCN(CC)CCCCNc1ncc2cc(-c3cc(OC)cc(OC)c3)c(NC(=O)NC(C)(C)C)nc2n1
cediranib (0.4 µM): COc1cc2c(Oc3ccc4[nH]c(C)cc4c3F)ncnc2cc1OCCCN1CCCC1
erlotinib (0.8 µM): C#Cc1cccc(Nc2ncnc3cc(OCCOC)c(OCCOC)cc23)c1
lenalidomide (1 µM): Nc1cccc2c1CN(C1CCC(=O)NC1=O)C2=O (stereo not drawn)
vismodegib (1 µM): CS(=O)(=O)c1ccc(C(=O)Nc2ccc(Cl)c(-c3ccccn3)c2)c(Cl)c1
PF-04217903 (1 µM): OCCn1cc(-c2cnc3nnn(Cc4ccc5ncccc5c4)c3n2)cn1
perifosine (0.4 µM): CCCCCCCCCCCCCCCCCCOP(=O)([O-])OC1CC[N+](C)(C)CC1
cisplatin (1.6 µM): N.N.[Cl][Pt][Cl]
Src-I1 (2 µM): COc1cc2ncnc(Nc3ccc(Oc4ccccc4)cc3)c2cc1OC
VX-702 (0.4 µM): NC(=O)c1ccc(N(C(N)=O)c2c(F)cccc2F)nc1-c1ccc(F)cc1F

Second drug	LOX IMVI	COLO 829	IST-MEL1	G-361	A2058	COLO 800	501mel	IPC-298
VX-702	52.6	60.8	88.9	82.1	98.6	108	-	94.8
erlotinib	45.2	61.8	75.1	74.9	111	82.8	-	83.6
U73122	47.2	76.2	100	91.1	89.9	105	78.5	105
ABT-263	50.3	77.2	56.4	72.7	89.3	55.5	-	85.6
vismodegib	125	111	94.8	86.4	103	145	-	91.6
SNS-032	66.7	86.1	87.3	94.8	94.8	97.8	-	102
CHIR-265	64.0	86.2	78.7	68.8	94.8	87.1	-	52.3
GW9662	93.0	90.9	86.1	82.2	78.1	148	52.6	89.8
tamatinib	80.4	75.6	86.9	105	87.0	79.5	-	63.7
pioglitazone	69.2	107	89.7	91.6	100	128	68.8	89.2
PF-04217903	71.0	92.1	79.4	94.6	106	100	-	86.5
perifosine	59.1	59.1	92.1	92.9	98.9	85.1	-	90.9
crizotinib	109	73.5	99.6	104	83.0	151	-	93.2
GW2580	72.8	109	81.1	81.5	93.4	110	-	85.9
Src-I1	76.0	89.1	87.8	71.5	104	117	48.1	78.9
lenalidomide	64.8	93.9	77.6	87.1	111	62.4	-	90.8
CX-4945	91.3	106	99.0	96.2	95.1	106	-	78.8
bexarotene	95.5	85.5	82.6	71.8	112	110	-	94.6
PD173074	67.2	111	91.5	77.8	95.3	59.8	58.4	89.7
FK866	48.3	64.5	60.5	6.4	116	29.8	-	35.2
cediranib	78.2	121	87.4	74.4	104	119	-	91.7
BI-78D3	87.0	84.5	80.1	82.3	89.4	99.4	-	86.0
midostaurin	79.7	79.0	86.0	90.3	88.0	106	-	85.2
tozasertib	109	75.5	93.4	81.2	96.8	108	-	88.7
cisplatin	112	91.3	94.3	91.5	108	84.3	-	98.1
IMD-0354	73.2	92.3	89.4	92.8	87.6	56.5	-	88.7
ruxolitinib	64.1	96.5	88.7	78.1	77.6	95.9	-	92.0

For reference, 2 entries once more:

Second drug,LOX IMVI,COLO 829,IST-MEL1,G-361,A2058,COLO 800,501mel,IPC-298
PD173074,67.2,111,91.5,77.8,95.3,59.8,58.4,89.7
FK866,48.3,64.5,60.5,6.4,116,29.8,-,35.2